In the assay the target is T1, AT-rich interactive domain-containing protein 3B (ARID3B) (UniProt Q8IVW6).
T1 sequence: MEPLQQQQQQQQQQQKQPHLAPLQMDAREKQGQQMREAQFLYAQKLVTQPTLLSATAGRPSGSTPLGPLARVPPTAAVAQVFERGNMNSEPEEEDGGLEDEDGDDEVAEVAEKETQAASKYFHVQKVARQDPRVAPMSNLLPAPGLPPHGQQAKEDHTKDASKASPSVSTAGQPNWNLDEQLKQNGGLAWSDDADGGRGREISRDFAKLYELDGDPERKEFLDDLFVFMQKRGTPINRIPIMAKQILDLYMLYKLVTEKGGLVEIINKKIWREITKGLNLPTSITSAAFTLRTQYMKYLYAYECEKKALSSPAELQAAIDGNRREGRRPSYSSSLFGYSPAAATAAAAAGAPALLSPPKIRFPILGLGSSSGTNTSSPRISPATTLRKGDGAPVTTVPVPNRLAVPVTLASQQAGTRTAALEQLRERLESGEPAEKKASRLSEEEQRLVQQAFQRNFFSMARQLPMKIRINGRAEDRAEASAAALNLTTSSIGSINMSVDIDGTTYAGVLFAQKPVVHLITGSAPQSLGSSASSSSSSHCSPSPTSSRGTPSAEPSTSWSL
The experiment in a line: co-IP; SKOV3 and OVCAR8 cell lysates (IP lysis buffer); 5 ug antibody conjugated to magnetic beads; beads washed three times; eluate analysed by Western blot; precipitating antibody not stated. (A western blot detects proteins with antibodies after separation by electrophoresis.)

Sequences of proteins named here, by UniProt entry; tags and fusion partners are left off.
UniProt P49796: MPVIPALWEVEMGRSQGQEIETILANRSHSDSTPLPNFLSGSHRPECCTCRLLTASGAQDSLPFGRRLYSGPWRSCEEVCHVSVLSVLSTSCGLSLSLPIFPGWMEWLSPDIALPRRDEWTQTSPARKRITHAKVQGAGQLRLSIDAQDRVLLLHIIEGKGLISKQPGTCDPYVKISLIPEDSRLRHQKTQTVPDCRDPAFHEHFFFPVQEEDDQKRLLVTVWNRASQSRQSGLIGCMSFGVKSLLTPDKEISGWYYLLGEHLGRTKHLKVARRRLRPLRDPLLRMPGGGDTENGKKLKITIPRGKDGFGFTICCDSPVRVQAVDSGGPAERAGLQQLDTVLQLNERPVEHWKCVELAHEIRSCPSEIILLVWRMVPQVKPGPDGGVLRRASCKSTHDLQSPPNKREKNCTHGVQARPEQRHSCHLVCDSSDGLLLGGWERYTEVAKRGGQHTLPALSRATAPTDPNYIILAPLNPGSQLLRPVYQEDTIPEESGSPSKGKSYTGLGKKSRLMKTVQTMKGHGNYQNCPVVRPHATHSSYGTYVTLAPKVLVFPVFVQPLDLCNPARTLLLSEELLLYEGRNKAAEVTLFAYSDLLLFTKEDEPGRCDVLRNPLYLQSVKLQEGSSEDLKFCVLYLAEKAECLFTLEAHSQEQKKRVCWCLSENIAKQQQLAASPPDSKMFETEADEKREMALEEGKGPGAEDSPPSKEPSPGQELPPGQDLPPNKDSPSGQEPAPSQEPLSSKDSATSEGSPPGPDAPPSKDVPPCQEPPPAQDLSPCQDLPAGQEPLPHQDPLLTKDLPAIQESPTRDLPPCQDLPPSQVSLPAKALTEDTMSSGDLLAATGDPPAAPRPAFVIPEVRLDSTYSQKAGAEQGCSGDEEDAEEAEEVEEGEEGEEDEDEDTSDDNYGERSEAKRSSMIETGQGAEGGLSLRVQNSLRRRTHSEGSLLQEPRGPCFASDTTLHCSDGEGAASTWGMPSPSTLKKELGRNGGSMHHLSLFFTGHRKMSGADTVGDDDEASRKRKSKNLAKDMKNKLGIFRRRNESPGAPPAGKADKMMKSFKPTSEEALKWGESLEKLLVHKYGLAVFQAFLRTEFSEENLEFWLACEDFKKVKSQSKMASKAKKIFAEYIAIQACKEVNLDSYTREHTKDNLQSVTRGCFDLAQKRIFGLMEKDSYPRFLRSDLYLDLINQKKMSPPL

Here are results for one substance from article PMC12130528.

Results are given in words; binding and its absence hold for the method and conditions named. Binding seen in cells or lysates may run through a third protein. Some entries that bind do so weakly or less than the wild type.

For “regulator of G protein signaling 3 (RGS3) (from UniProt P49796 1-1198)”, the binding entry is reported as “binds”.
